The source of these data is paper PMC2717102.

Sequences of proteins named here, by UniProt entry; tags and fusion partners are left off. A change or cut given only in a name is not applied to a line headed by its entry.
UniProt P26718: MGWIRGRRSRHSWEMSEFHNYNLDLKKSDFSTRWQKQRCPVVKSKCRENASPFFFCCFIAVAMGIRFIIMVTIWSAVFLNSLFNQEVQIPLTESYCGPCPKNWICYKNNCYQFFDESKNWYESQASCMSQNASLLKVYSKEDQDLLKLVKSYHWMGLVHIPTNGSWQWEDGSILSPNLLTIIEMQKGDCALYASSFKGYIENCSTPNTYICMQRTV

Substitutions are numbered along the chain they refer to. In names and notes the source's numbering stands. These are yes or no findings as the source states them, for the method shown. Binding can be weak; no strength is given.

To fix the notation:
B1: wild-type MICA (ligand, UniProt Q29983 24-297)
chain: EPHSLRYNLTVLSWDGSVQSGFLTEVHLDGQPFLRCDRQKCRAKPQGQWAEDVLGNKTWDRETRDLTGNGKDLRMTLAHIKDQKEGLHSLQEIRVCEIHEDNSTRSSQHFYYDGELFLSQNLETKEWTMPQSSRAQTLAMNVRNFLKEDAMKTKTHYHAMHADCLQELRRYLKSGVVLRRTVPPMVNVTRSEASEGNITVTCRASGFYPWNITLSWRQDGVSLSHDTQQWGDVLPDGNGTYQTWVATRICQGEEQRFTCYMEHSGNHSTHPVPS
B2: MICA mutant K154P (ligand, UniProt Q29983 24-297)
chain: B1 chain with K154P
B3: MICA mutant Q108W (ligand, UniProt Q29983 24-297)
chain: B1 chain with Q108W
B4: MICA mutant N69W_K152E_K154D (ligand, UniProt Q29983 24-297)
chain: B1 chain with N69W, K152E, K154D
B5: MICA mutant N69Q (ligand, UniProt Q29983 24-297)
chain: B1 chain with N69Q
B6: MICA mutant K154S_T155D (ligand, UniProt Q29983 24-297)
chain: B1 chain with K154S, T155D
B7: MICA mutant N69Q_Q120I_K154S_T155D_Y157L (ligand, UniProt Q29983 24-297)
chain: B1 chain with N69Q, Q120I, K154S, T155D, Y157L
B8: MICA mutant K152V_K154S_T155D (ligand, UniProt Q29983 24-297)
chain: B1 chain with K152V, K154S, T155D
B9: MICA mutant D72W (ligand, UniProt Q29983 24-297)
chain: B1 chain with D72W

One experiment concerns the target homodimeric NKG2D (UniProt P26718). Description: SEC; small-zone analytical SEC as a1, column saturated with HBS-EA containing 1 M urea; both purified. (In general: In gel filtration, larger molecules generally elute earlier.)
In the case of B1, the binding entry is reported as “no binding (only with 1 M urea in the buffer)”.
Same read-out and setting: for B2 the value was “no binding (only with 1 M urea in the buffer)”; for B3, “no binding (only with 1 M urea in the buffer)”.
The same measure, in the same setting: for B4 the value was “binds”.

Another experiment has the same target. Description: SPR; equilibrium binding analysis as used in the previous study [13]; fast kinetics precluded kinetic fits; both purified. (In general: SPR reads the build-up and loss of mass on a sensor chip optically.)
B2: the binding entry is reported as “binds”.
As for B3, the binding result is “binds”.

A further experiment has the same target. Description: SEC; small-zone analytical SEC, Superdex 75 10/300, 0.5 mL/min, HBS-EA (10 mM HEPES pH 7.4, 150 mM NaCl, 3 mM EDTA, 0.02% sodium azide), no urea; homodimeric NKG2D and MICA mixed and immediately injected; ++ separate ~60-kDa peak, + early shoulder to the ~30-kDa peak, - only the ~30-kDa peak; both purified.
B1: the binding entry is reported as “binds”.
For B5, the binding result is reported as “binds”.
Same read-out and setting: the value for B2 was “binds”; that for B6 was “no binding (tested: 20 μmol each in 300 μL)”; that for B7 was “no binding (tested: 20 μmol each in 300 μL)”.
Same read-out and setting: for B8 the value was “no binding (tested: 20 μmol each in 300 μL)”.
With B9, the binding result was “no binding (tested: 20 μmol each in 300 μL)”.
Turning to B3, the binding entry is given as “binds”.
Still for that read-out and setting: for B4 the value was “binds”.
